Patent EP4725955A1 (Nanjing Anji Biotechnology Co., Ltd., priority 2023, dated 2025)
One purity is given for all peptides; the source may state it once. Some peptides are written in HELM: one residue between dots, names in brackets for other building blocks, links after the first $. Where no end group is shown, it is not given here. The star is where a group is joined. FITC = O=C1OC2(c3ccc(O)cc3Oc3cc(O)ccc32)c2ccc(NC(=S)*)cc21

Assay: general procedure: Fmoc solid-phase peptide synthesis; Wang resin; DIC/HOBT/DMAP (first residue); HBTU/DIPEA (Cy5 coupling)
Conditions: whole synthesis, 1.1 mmol/g

| Substance | crude HPLC purity (scale 1 g Wang resin) | crude HPLC purity (scale 0.1 g Wang resin) |
| --- | --- | --- |
| PEPTIDE1{R.S.P.Y.A.N.S}$$$$V2.0 | 90% | – |
| {FITC}-RSPYANS | – | 90% |
| Cy5-RSPYANS (Cy5 label) | – | 90% |
